The exact form of at least one protein or probe is not confirmed. For some assays here: Results from cells or extracts need not show a direct contact. For some assays here: Negatives hold for the conditions tested. At least one verdict rests on a figure or table, not on a statement of the authors. For some assays here: Tags and fusion partners may be left off the protein sequences shown.
What was measured:
[1] = biological target: IGF2BP1 (endogenous) (Homo sapiens) (UniProt Q9NZI8); experiment: pull-down; conditions: Pull-down: 1 nmol biotin-RNA on streptavidin-agarose, nuclear extract, 30 C 30 min, immunoblot, protein in an extract
HuR = HuR (UniProt Q15717); experiment: pull-down; conditions: Pull-down: 1 nmol biotin-RNA on streptavidin-agarose, nuclear extract, 30 C 30 min, immunoblot, protein in an extract
PABPC1 = PABPC1 (UniProt P11940); experiment: pull-down; conditions: Pull-down: 1 nmol biotin-RNA on streptavidin-agarose, nuclear extract, 30 C 30 min, immunoblot, protein in an extract
MATR3 = biological target: T1, MATR3 (UniProt P43243); experiment: pull-down; conditions: Pull-down: 1 nmol biotin-RNA on streptavidin-agarose, nuclear extract, 30 C 30 min, immunoblot, protein in an extract
T1 sequence (looked up, limits assumed): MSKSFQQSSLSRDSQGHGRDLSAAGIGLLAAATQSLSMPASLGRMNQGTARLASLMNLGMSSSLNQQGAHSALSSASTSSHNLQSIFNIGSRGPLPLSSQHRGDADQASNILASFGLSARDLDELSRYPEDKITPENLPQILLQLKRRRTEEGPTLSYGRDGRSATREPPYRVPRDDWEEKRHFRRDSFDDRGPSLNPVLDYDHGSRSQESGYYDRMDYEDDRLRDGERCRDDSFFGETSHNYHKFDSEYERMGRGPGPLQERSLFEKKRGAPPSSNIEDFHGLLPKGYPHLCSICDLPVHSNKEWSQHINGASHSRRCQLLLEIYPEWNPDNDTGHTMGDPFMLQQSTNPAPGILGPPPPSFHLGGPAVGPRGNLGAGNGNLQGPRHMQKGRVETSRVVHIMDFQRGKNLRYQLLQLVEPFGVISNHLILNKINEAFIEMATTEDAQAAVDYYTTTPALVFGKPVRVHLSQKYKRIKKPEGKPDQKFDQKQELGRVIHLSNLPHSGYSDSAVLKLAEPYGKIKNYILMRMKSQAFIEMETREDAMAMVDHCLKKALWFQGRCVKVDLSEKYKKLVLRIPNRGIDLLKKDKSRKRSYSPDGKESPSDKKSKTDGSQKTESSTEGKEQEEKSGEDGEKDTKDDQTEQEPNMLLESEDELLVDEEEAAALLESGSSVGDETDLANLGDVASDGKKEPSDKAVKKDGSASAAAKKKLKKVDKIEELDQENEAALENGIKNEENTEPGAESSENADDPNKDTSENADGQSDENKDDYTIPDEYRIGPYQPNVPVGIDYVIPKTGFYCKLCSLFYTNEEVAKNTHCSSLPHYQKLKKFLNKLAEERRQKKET

By UniProt entry, the sequences of proteins in these tests, tags left out.
UniProt Q9NZI8, whole entry: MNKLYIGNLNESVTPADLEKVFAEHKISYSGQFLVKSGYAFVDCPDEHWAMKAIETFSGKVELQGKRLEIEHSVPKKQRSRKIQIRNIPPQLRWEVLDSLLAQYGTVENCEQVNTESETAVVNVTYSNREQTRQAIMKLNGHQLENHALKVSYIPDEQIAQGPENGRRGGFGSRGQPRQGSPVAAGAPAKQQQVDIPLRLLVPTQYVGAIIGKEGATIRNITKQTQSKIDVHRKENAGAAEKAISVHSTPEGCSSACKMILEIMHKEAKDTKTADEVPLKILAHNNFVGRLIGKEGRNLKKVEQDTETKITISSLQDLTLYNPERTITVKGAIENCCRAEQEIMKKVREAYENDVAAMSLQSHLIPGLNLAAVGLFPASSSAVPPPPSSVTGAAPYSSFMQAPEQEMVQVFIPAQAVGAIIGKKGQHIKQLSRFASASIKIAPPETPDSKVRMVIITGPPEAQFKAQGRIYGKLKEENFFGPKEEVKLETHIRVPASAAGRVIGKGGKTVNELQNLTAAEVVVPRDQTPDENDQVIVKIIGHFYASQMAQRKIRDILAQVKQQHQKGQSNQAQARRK
UniProt Q15717, whole entry: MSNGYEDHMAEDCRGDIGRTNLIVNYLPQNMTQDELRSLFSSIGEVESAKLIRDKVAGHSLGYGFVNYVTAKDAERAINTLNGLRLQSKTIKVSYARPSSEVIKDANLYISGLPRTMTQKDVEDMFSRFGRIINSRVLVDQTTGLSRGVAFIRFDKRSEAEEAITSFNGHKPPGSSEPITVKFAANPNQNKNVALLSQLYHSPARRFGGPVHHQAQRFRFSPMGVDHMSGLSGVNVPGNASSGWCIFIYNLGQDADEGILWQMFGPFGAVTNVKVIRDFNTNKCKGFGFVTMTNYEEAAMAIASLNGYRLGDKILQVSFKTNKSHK
UniProt P11940, whole entry: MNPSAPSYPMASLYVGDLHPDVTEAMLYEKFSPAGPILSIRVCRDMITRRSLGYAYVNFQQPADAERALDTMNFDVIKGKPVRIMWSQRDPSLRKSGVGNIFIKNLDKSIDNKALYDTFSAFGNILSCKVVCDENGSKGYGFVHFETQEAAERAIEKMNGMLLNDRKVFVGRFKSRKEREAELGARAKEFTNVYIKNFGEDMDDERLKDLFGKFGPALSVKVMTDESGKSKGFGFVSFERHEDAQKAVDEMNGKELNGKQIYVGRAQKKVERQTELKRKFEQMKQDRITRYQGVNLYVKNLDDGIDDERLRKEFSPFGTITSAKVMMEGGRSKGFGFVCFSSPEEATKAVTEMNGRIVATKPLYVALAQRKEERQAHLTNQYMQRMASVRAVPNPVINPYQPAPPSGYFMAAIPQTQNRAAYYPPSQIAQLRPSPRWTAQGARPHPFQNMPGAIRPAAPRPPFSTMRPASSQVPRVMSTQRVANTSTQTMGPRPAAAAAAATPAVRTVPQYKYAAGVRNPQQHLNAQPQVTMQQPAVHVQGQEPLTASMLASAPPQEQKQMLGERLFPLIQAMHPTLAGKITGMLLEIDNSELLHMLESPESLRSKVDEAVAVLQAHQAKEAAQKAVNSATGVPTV

[2] = biological target: IGF2BP1-Flag (recombinant) (UniProt Q9NZI8); experiment: EMSA; conditions: no RBRP, or RBRP G19A (no increase); m6A at 9 and 15; EMSA: LightShift kit, 20 pmol RNA, 6 ug IGF2BP1-Flag, 2 ug RBRP, room temperature 30 min, then 0.2% glutaraldehyde (1 ul) on ice 15 min, 6% TBE gel; recombinant protein; protein details: Flag; label: biotin 5'
IGF2BP1-HA WT = IGF2BP1-HA WT (UniProt Q9NZI8); experiment: pull-down; conditions: RBRP (ORF-Flag) coexpressed; m6A at 9 and 15; Pull-down: 1 nmol biotin-RNA on streptavidin-agarose, nuclear extract, 30 C 30 min, immunoblot; protein in an extract; protein details: HA; label: biotin 5'
[3] = with or without RBRP overexpression, label: biotin 5'
[4] = enhanced by RBRP WT, not G19A, m6A at 8, 14, 20 and 31, label: biotin …
[5] = enhanced by RBRP, m6A at 9 and 15, label: biotin 5'
[6] = enhanced by RBRP WT, not G19A, m6A at 8 and 30, label: biotin 5'

Sequence: AGUUGAAACACAAACUUGAACAGCUACGGAACUCUU [c-Myc CRD2-A]
- binding result [1, 3]: no binding

Sequence: AGUUGAAACACAAACUUGAACAGCUACGGAACUCUU [c-Myc CRD2-m6A]
- binding result (HuR; [4]): binds
- binding result (PABPC1; [4]): binds
- binding result (MATR3; [4]): binds
- binding result ([1]; enhanced by RBRP (ORF), not by 5'UTR-ORFmut or RBRP G19A, m6A at 8, 14, 20 and 31, label: biotin …): binds

Sequence: CGUCUCGGACUCGGACUGCU [ss-A]
- binding result [1, 3]: no binding

Sequence: CGUCUCGGACUCGGACUGCU [ss-m6A]
- binding result [2]: binds
- binding result (HuR; [5]): binds
- binding result (PABPC1; [5]): binds
- binding result (IGF2BP1-HA WT): binds
- binding result (MATR3; [5]): binds
- binding result ([1]; enhanced by RBRP (ORF), not by 5'UTR-ORFmut or RBRP G19A, m6A at 9 and 15, label: biotin 5'): binds

Sequence: GAAGAGGACUUGUUGCGGAAACGACGAGAACAGUU [c-Myc CRD1-A]
- binding result [1, 3]: no binding

Sequence: GAAGAGGACUUGUUGCGGAAACGACGAGAACAGUU [c-Myc CRD1-m6A]
- binding result (HuR; [6]): binds
- binding result (PABPC1; [6]): binds
- binding result (MATR3; [6]): binds
- binding result ([1]; enhanced by RBRP (ORF), not by 5'UTR-ORFmut or RBRP G19A, m6A at 8 and 30, label: biotin 5'): binds

Source: paper PMC7125119
